The other results are listed elsewhere or left out. Repeats are few or missing, and single values can be far off.
Assays:
[1] = system: MEPP (mouse ovarian epithelium Trp53/Pten KO); experiment: cell viability relative to untreated (fraction); higher = less growth inhibition; details: 5 µM; 3 days
[2] = system: PREPP (mouse prostate epithelium Trp53/Pten KO); experiment: as above; details: 5 µM; 3 days

| SMILES | cell viability [1] | cell viability [2] |
| --- | --- | --- |
| Cc1nc2n(c(=O)c1CCN1CCC(c3noc4cc(F)ccc34)CC1)CCCC2O (stereo unspecified) | 1.17 | 1.01 |
| NC(C=O)C(O)C(O)C(O)CO (stereo unspecified) | 0.952 | 0.804 |
| COc1ccc(-c2cc(=S)ss2)cc1 | 0.939 | 0.899 |
| COc1cccc(C(=O)O)c1 | 1.04 | 0.862 |
| CC(C)C(C)C(O)C(O)C(C)C1CCC2C3COC(=O)C4CC(O)C(O)CC4(C)C3CCC12C (stereo unspecified) | 1.41 | 0.826 |
| CC(=O)N[C@H]1[C@H]([C@@H](O)[C@@H](O)CO)O[C@@](O)(C(=O)O)C[C@@H]1O | 0.901 | 1.1 |
| CCC[C@@H]1C[C@@H](C(=O)N[C@@H]([C@H]2O[C@H](SC)[C@H](O)[C@@H](O)[C@H]2O)[C@@H](C)O)N(C)C1 | 0.935 | 1.01 |
| CC(=O)OC/C=C(\C)CCC=C(C)C | 1.24 | 0.927 |
| O=C(O)c1ccc[n+]([O-])c1 | 0.886 | 0.964 |
| C=C(C)[C@@H]1CCC2=CC(=O)C[C@@H](C)[C@]2(C)C1 | 1.03 | 0.893 |
| C[C@]12CCC(=O)C=C1C=C[C@@H]1[C@@H]2CC[C@@]2(C)[C@H]1CC[C@@]21CCC(=O)O1 | 0.775 | 0.826 |
| COc1ccc(-c2coc3cc(O)ccc3c2=O)cc1 | 1.24 | 0.94 |
| CNc1ncnc2c1ncn2[C@@H]1O[C@H](CO)[C@@H](O)[C@H]1O | 0.971 | 0.751 |
| CCOC(=O)O[C@]1(C(=O)OCCl)CC[C@H]2[C@@H]3CCC4=CC(=O)C=C[C@]4(C)[C@H]3[C@@H](O)C[C@@]21C | 1.15 | 0.874 |
| CNC(CC(=O)O)C(=O)O (stereo unspecified) | 1.22 | 0.907 |
| CO/N=C(\C(=O)N[C@@H]1C(=O)N2C(C(=O)O)=C(CSC(=O)c3ccco3)CS[C@H]12)c1csc(N)n1 | 1.12 | 0.932 |
| C[C@]12CC[C@@H]3c4ccc(O)cc4CC[C@H]3[C@@H]1CCC2=O | 1.1 | 0.86 |
| O=C([O-])[C@H](O)[C@@H](O)[C@H](O)[C@H](O)CO.O=C([O-])[C@H](O)[C@@H](O)[C@H](O)[C@H](O)CO.[Ca+2] | 1.03 | 1.08 |
| COC(=O)C[C@](O)(CCCC(C)(C)O)C(=O)O[C@@H]1C(OC)=C[C@]23CCCN2CCc2cc4c(cc2[C@H]13)OCO4 | 0.453 | 0.697 |
| CC(C)=CCNc1ncnc2nc[nH]c12 | 1.05 | 0.836 |
| NCCCCCCCC(=O)O | 0.938 | 1.17 |
| N[C@H](CC(=O)O)C(=O)O | 1.27 | 1.01 |
| COc1cc2oc(-c3ccc(O)cc3)cc(=O)c2c(O)c1[C@@H]1O[C@H](CO)[C@@H](O)[C@H](O)[C@H]1O[C@@H]1O[C@H](CO)[C@@H](O)[C@H](O)[C@H]1O | 0.961 | 1.06 |
| CC(=O)O[C@H](CC(=O)O)C[N+](C)(C)C | 1.26 | 1.05 |
| CN(C)N(C)C(=O)[C@@]1(Cc2ccccc2)CCCN(C(=O)[C@@H](Cc2c[nH]c3ccccc23)NC(=O)C(C)(C)N)C1 | 1.26 | 0.855 |
| COc1ccc(O)c(C(=O)O)c1 | 1.22 | 0.914 |
| CC1(C)C[C@@H]1C(=O)N/C(=C\CCCCSC[C@H](N)C(=O)O)C(=O)O | 0.804 | 0.9 |
| O=C(O)c1cc(=O)cc(C(=O)O)o1 | 0.904 | 0.939 |

2 entries from above, as tab-separated lines.
SMILES	cell viability [1]	cell viability [2]
CC(C)=CCNc1ncnc2nc[nH]c12	1.05	0.836
CC(=O)O[C@H](CC(=O)O)C[N+](C)(C)C	1.26	1.05

Reference: the supplement of paper PMC12873370
